From the supplement of paper PMC6078165
± gives the standard deviation of the averaged measurements. The reference is the same well before dosing, and untreated signal decays as well.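 Labels refer to human fibroblasts, largely primary: uterine (C12385, HUF), lung (H6013), bone (Hs27A), adrenal (HADF), skin (WS1), plus mammary HMF and breast cancer-associated Hs343T. Cancer lines are basal-like or mesenchymal-like triple-negative breast cancer. The paper counts as hits responses shifting over 3x the replicate standard deviation. The tissue of the other fibroblasts is not given here.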

Test system: MDAMB468
Test: relative JC-1 red fluorescence (viability) vs pre-drug, coculture with fibroblast (fraction); higher = more viable cancer cells
Settings: 100 µM
Experimental: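 JC-1 labelled TNBC cells cocultured 1:1 (1,500 cells each) with CellTrace Violet stained primary or stromal fibroblasts in 384-well plates in FluoroBrite medium, treated with one of 42 anticancer drugs at 0.1, 1, 10 or 100 uM. JC-1 red fluorescence (mitochondrial integrity in cancer cells only) was read by plate reader every 8 h for 72 h. Values are normalised to each well's pre-drug value. The stock of one drug was tenfold lower, so its dose labels may be too high.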

O=C(O)C1(C(=O)O)CCC1.[NH2-].[NH2-].[Pt+2] [Carboplatin]
relative JC-1 red fluorescence
Settings	8 h	16 h	24 h	32 h	40 h	48 h	56 h	64 h	72 h
coculture fibroblast: C12385	0.843 ± 0.017	0.821 ± 0.03	0.792 ± 0.038	0.728 ± 0.0083	0.667 ± 0.013	0.643 ± 0.0066	0.604 ± 0.015	0.589 ± 0.012	0.575 ± 0.0071
coculture fibroblast: H6013	0.884 ± 0.0029	0.884 ± 0.023	0.86 ± 0.054	0.844 ± 0.1	0.861 ± 0.11	0.874 ± 0.11	0.868 ± 0.13	0.868 ± 0.13	0.796 ± 0.12
coculture fibroblast: H6019	0.84 ± 0.0095	0.821 ± 0.023	0.777 ± 0.038	0.664 ± 0.048	0.603 ± 0.054	0.592 ± 0.07	0.552 ± 0.082	0.539 ± 0.081	0.532 ± 0.08
coculture fibroblast: H6076	0.893 ± 0.012	0.91 ± 0.021	0.8466 ± 0.0078	0.8474 ± 0.0066	0.757 ± 0.032	0.742 ± 0.032	0.721 ± 0.044	0.712 ± 0.044	0.767 ± 0.058
coculture fibroblast: H6231	0.779 ± 0.021	0.8385 ± 0.008	0.756 ± 0.015	0.73 ± 0.011	0.624 ± 0.038	0.58 ± 0.028	0.53 ± 0.025	0.508 ± 0.019	0.517 ± 0.024
coculture fibroblast: HADF	0.8779 ± 0.0051	0.828 ± 0.018	0.7594 ± 0.0053	0.677 ± 0.013	0.649 ± 0.011	0.648 ± 0.02	0.611 ± 0.02	0.605 ± 0.014	0.534 ± 0.01
coculture fibroblast: HCFa	0.877 ± 0.0074	0.884 ± 0.02	0.833 ± 0.013	0.79 ± 0.023	0.75 ± 0.029	0.752 ± 0.027	0.699 ± 0.023	0.667 ± 0.017	0.603 ± 0.018
coculture fibroblast: HCPF	0.849 ± 0.0087	0.875 ± 0.036	0.784 ± 0.03	0.742 ± 0.016	0.6329 ± 0.0037	0.5919 ± 0.0042	0.543 ± 0.0071	0.529 ± 0.0056	0.5324 ± 0.0044
coculture fibroblast: HHSteC	0.875 ± 0.051	0.822 ± 0.067	0.768 ± 0.055	0.692 ± 0.053	0.656 ± 0.028	0.659 ± 0.017	0.601 ± 0.03	0.571 ± 0.012	0.513 ± 0.016
coculture fibroblast: HMF	0.823 ± 0.027	0.858 ± 0.011	0.7863 ± 0.0024	0.7407 ± 0.0059	0.624 ± 0.0021	0.58 ± 0.0099	0.533 ± 0.013	0.516 ± 0.018	0.518 ± 0.018
coculture fibroblast: HPFa	0.905 ± 0.011	0.9031 ± 0.0014	0.875 ± 0.03	0.788 ± 0.039	0.774 ± 0.029	0.772 ± 0.03	0.713 ± 0.04	0.696 ± 0.02	0.61 ± 0.012
coculture fibroblast: HUF	0.869 ± 0.012	0.786 ± 0.0086	0.7045 ± 0.0026	0.6 ± 0.01	0.545 ± 0.029	0.534 ± 0.043	0.491 ± 0.037	0.483 ± 0.044	0.467 ± 0.046
coculture fibroblast: Hs5	0.936 ± 0.029	0.914 ± 0.057	0.84 ± 0.018	0.7846 ± 0.0052	0.695 ± 0.018	0.65 ± 0.042	0.636 ± 0.05	0.611 ± 0.046	0.637 ± 0.055
coculture fibroblast: Hs27A	0.8482 ± 0.0039	0.8988 ± 0.0072	0.826 ± 0.015	0.78982 ± 0.0003	0.7523 ± 0.0027	0.76 ± 0.012	0.7272 ± 0.0059	0.7208 ± 0.0012	0.6462 ± 0.0013
coculture fibroblast: Hs343T	0.8395 ± 0.0055	0.8695 ± 0.0019	0.785 ± 0.015	0.711 ± 0.031	0.571 ± 0.011	0.533 ± 0.013	0.487 ± 0.017	0.468 ± 0.018	0.468 ± 0.023
coculture fibroblast: WS1	0.839 ± 0.037	0.808 ± 0.046	0.746 ± 0.058	0.641 ± 0.066	0.577 ± 0.055	0.537 ± 0.064	0.497 ± 0.05	0.474 ± 0.041	0.469 ± 0.044
